Read-outs that look alike come from different tables or passages of the source. Results are given in words; binding and its absence hold for the method and conditions named. Binding seen in cells or lysates may run through a third protein. Some entries that bind do so weakly or less than the wild type.

Sequences of proteins named here, by UniProt entry; tags and fusion partners are left off.
UniProt Q8K1B8: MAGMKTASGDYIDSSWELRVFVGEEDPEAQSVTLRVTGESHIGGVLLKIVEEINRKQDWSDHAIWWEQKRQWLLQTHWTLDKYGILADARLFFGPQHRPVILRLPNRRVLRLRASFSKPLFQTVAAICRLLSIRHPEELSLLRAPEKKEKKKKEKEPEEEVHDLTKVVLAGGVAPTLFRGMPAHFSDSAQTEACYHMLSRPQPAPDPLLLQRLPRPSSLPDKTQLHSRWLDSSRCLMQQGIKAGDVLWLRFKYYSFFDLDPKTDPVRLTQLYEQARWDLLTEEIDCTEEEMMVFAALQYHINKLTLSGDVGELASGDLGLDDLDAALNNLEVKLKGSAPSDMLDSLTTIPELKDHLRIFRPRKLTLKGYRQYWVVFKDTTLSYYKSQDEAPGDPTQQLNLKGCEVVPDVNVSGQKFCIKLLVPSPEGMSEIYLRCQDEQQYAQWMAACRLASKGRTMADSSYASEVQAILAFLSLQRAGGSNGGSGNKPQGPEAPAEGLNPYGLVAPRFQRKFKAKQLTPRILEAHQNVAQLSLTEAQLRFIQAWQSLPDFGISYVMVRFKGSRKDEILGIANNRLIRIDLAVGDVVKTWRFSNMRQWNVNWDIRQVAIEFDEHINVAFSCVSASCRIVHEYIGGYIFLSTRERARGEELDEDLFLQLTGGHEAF
UniProt Q91VJ4: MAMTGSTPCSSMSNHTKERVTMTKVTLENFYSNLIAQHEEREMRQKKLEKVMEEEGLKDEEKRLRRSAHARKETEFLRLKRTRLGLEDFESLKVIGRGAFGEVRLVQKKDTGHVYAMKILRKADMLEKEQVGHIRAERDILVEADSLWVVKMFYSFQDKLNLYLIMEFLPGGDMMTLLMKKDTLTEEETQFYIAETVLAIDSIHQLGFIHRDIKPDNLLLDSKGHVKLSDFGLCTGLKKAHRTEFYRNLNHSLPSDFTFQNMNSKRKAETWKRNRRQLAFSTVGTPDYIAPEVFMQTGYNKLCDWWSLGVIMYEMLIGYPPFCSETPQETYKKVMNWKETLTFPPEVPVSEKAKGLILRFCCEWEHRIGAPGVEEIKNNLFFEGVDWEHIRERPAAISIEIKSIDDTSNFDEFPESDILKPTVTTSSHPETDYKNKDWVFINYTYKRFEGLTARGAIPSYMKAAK

For one assay, the target named is Myc–kindlin-3 (UniProt Q8K1B8). Nature of the assay: co-IP; 293T cells transfected with Myc-kindlin-3 and FLAG-NDR1; lysis in 1% NP-40, 20% glycerol, 150 mM NaCl, 25 mM Tris pH 7.5, 2 mM MgCl2; IP with tag antibodies and protein G-Sepharose, four washes, immunoblot. A general note: A western blot detects proteins with antibodies after separation by electrophoresis.

In a further assay the target is FLAG-NDR1 (UniProt Q91VJ4). Described as above.
For assay [1], the target named is NDR1 (mouse (endogenous in primary T cells)) (UniProt Q91VJ4). Nature of the assay: co-IP; primary mouse T cells, stimulated with anti-CD3ε (2C11, 10 μg, 5 min) or unstimulated; whole-cell lysate; IP with anti-NDR1 polyclonal antibody and protein G-Sepharose, immunoblot.
For assay [2] the target is unchanged. The assay is described as above. The source holds these as a separate data set.

In the case of “FLAG-NDR1 (from UniProt Q91VJ4 1-465) (enzyme)”, in the assay with Myc–kindlin-3, the binding result is on record as “binds”.
“Myc–kindlin-3 (from UniProt Q8K1B8 1-665)”: the binding result with FLAG-NDR1 is listed as “binds”.
kindlin-3 (from UniProt Q8K1B8 1-665): the binding result in assay [1] is on record as “binds”.

B1: Mst1 (enzyme, UniProt Q9JI11 1-487)
chain: METVQLRNPPRRQLKKLDEDSLTKQPEEVFDVLEKLGEGSYGSVYKAIHKETGQIVAIKQVPVESDLQEIIKEISIMQQCDSPHVVKYYGSYFKNTDLWIVMEYCGAGSVSDIIRLRNKTLTEDEIATILQSTLKGLEYLHFMRKIHRDIKAGNILLNTEGHAKLADFGVAGQLTDTMAKRNTVIGTPFWMAPEVIQEIGYNCVADIWSLGITAIEMAEGKPPYADIHPMRAIFMIPTNPPPTFRKPELWSDNFMDFVKQCLVKSPEQRATATQLLQHPFVKSAKGVSILRDLINEAMDVKLKRQEAQQREVDQDDEENSEEDEMDSGTMVRAAGDEMGTVRVASTMSGGANTMIEHGDTLPSQLGTMVINTEDEEEEGTMKRRDETMQPAKPSFLEYFEQKEKENQINSFGKNVSGSLKNSSDWKIPQDGDYEFLKSWTVEDLQKRLLALDPMMEQEMEEIRQKYRSKRQPILDAIEAKKRRQQNF
On to B1, for which the binding result in assay [2] is given as “binds”.

For the origin of these results see paper PMC5376635, “NDR1-Dependent Regulation of Kindlin-3 Controls High-Affinity LFA-1 Binding and Immune Synapse Organization” (Molecular and Cellular Biology, 2017).
